{"source": "the supplement of paper PMC4604168 (melanoma cell lines)", "note": "Some of the results follow. Single values are uncertain, as repeats are few or missing.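 Cells were imaged in 1,536-well plates, and nuclei stained with an antibody against cleaved PARP were counted against all DNA-stained nuclei to give the apoptosis fraction. Screening doses were chosen to leave most cells alive, and resting and induced cleaved-PARP levels differ strongly between cell lines.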", "data": [{"test_system": "CBRC014 (line from a melanoma biopsy)", "test": "cleaved PARP positive nuclei fraction relative to DMSO control; melanoma cells; higher = more apoptosis", "details": "library dose: low library concentration; 72 h", "units": {"cleaved PARP positive nuclei fraction": "%"}, "values": [{"molecule": "N#CC[C@H](C1CCCC1)n1cc(-c2ncnc3[nH]ccc23)cn1", "note": "[ruxolitinib] + O=C(Nc1ccccc1)c1cc([N+](=O)[O-])ccc1Cl [GW9662] (first compound 1 µM, partner dose 2 µM)", "cleaved PARP positive nuclei fraction": 128}, {"molecule": "O=C(/C=C/c1cccnc1)NCCCCC1CCN(C(=O)c2ccccc2)CC1", "note": "+ O=c1cc(-c2cccc3c2Sc2ccccc2S3)oc(N2CCOCC2)c1 [KU55933] (first compound 0.01 µM, partner dose 1 µM)", "cleaved PARP positive nuclei fraction": 128}, {"molecule": "CCCCCCCCCCCCCCCCCCOP(=O)([O-])OC1CC[N+](C)(C)CC1", "note": "[Perifosine] + Cc1cc([N+](=O)[O-])ccc1NS(=O)(=O)c1cc(Cl)ccc1Cl [FH535] (first compound 0.4 µM, partner dose 1 µM)", "cleaved PARP positive nuclei fraction": 256}, {"molecule": "N#CC[C@H](C1CCCC1)n1cc(-c2ncnc3[nH]ccc23)cn1", "note": "[ruxolitinib] + O=S(=O)(c1ccccc1)N(CC(F)(F)F)c1ccc(C(O)(C(F)(F)F)C(F)(F)F)cc1 [T0901317] (first compound 1 µM, partner dose 1.4 µM)", "cleaved PARP positive nuclei fraction": 83.3}, {"molecule": "Cc1cn(-c2cc(NC(=O)c3ccc(C)c(Nc4nccc(-c5cccnc5)n4)c3)cc(C(F)(F)F)c2)cn1", "note": "[nilotinib] + COC(=O)c1sccc1S(=O)(=O)Nc1ccc(Nc2ccccc2)cc1OC [GSK0660] (first compound 0.2 µM, partner dose 1 µM)", "cleaved PARP positive nuclei fraction": 93.7}, {"molecule": "Cc1ccc(Nc2nccc(N(C)c3ccc4c(C)n(C)nc4c3)n2)cc1S(N)(=O)=O", "note": "[Pazopanib] + O=C(O)C(=O)Nc1sc2c(c1C(=O)O)CCNC2 [TCS401] (first compound 0.4 µM, partner dose 1.66667 µM)", "cleaved PARP positive nuclei fraction": 107}, {"molecule": "N#CC[C@H](C1CCCC1)n1cc(-c2ncnc3[nH]ccc23)cn1", "note": "[ruxolitinib] + COc1ccc(COc2ccc(Cc3cnc(N)nc3N)cc2OC)cc1 [GW2580] (first compound 1 µM, partner dose 1 µM)", "cleaved PARP positive nuclei fraction": 84}, {"molecule": "Cc1ccc(Nc2nccc(N(C)c3ccc4c(C)n(C)nc4c3)n2)cc1S(N)(=O)=O", "note": "[Pazopanib] + CCc1ccc(CCOc2ccc(CC3SC(=O)NC3=O)cc2)nc1 [pioglitazone] (first compound 0.4 µM, partner dose 2 µM)", "cleaved PARP positive nuclei fraction": 212}, {"molecule": "Cc1cc(Nc2cc(N3CCN(C)CC3)nc(Sc3ccc(NC(=O)C4CC4)cc3)n2)n[nH]1", "note": "[Tozasertib] + c1cc(-c2cnn3cc(-c4ccc(OCCN5CCCCC5)cc4)cnc23)ccn1 [Dorsomorphin] (first compound 0.006 µM, partner dose 0.4 µM)", "cleaved PARP positive nuclei fraction": 101}, {"molecule": "Cc1ccc(Nc2nccc(N(C)c3ccc4c(C)n(C)nc4c3)n2)cc1S(N)(=O)=O", "note": "[Pazopanib] + COC(=O)c1sccc1S(=O)(=O)Nc1ccc(Nc2ccccc2)cc1OC [GSK0660] (first compound 0.4 µM, partner dose 1 µM)", "cleaved PARP positive nuclei fraction": 120}, {"molecule": "COc1cc([C@@H]2c3cc4c(cc3[C@@H](O[C@@H]3O[C@@H]5CO[C@@H](C)O[C@H]5[C@H](O)[C@H]3O)[C@H]3COC(=O)[C@H]23)OCO4)cc(OC)c1O", "note": "[etoposide] + O=S(=O)(c1ccccc1)N(CC(F)(F)F)c1ccc(C(O)(C(F)(F)F)C(F)(F)F)cc1 [T0901317] (first compound 0.02 µM, partner dose 1.4 µM)", "cleaved PARP positive nuclei fraction": 112}, {"molecule": "O=c1[nH]nc(Sc2ncc([N+](=O)[O-])s2)n1-c1ccc2c(c1)OCCO2", "note": "+ c1cc(-c2cnn3cc(-c4ccc(OCCN5CCCCC5)cc4)cnc23)ccn1 [Dorsomorphin] (first compound 0.2 µM, partner dose 0.4 µM)", "cleaved PARP positive nuclei fraction": 96.9}, {"molecule": "Cc1cc(Nc2cc(N3CCN(C)CC3)nc(Sc3ccc(NC(=O)C4CC4)cc3)n2)n[nH]1", "note": "[Tozasertib] + Oc1cc(-c2nc(-c3ccccc3)[nH]c2-c2ccncc2)ccc1Cl [L779450] (first compound 0.006 µM, partner dose 0.2 µM)", "cleaved PARP positive nuclei fraction": 110}, {"molecule": "Cc1cc(Nc2cc(N3CCN(C)CC3)nc(Sc3ccc(NC(=O)C4CC4)cc3)n2)n[nH]1", "note": "[Tozasertib] + Cn1cc(/C=C2\\C(=O)Nc3cccnc32)c2ccccc21 [GW441756] (first compound 0.006 µM, partner dose 0.4 µM)", "cleaved PARP positive nuclei fraction": 91.5}, {"molecule": "Cc1cn(-c2cc(NC(=O)c3ccc(C)c(Nc4nccc(-c5cccnc5)n4)c3)cc(C(F)(F)F)c2)cn1", "note": "[nilotinib] + O=C(O)C(=O)Nc1sc2c(c1C(=O)O)CCNC2 [TCS401] (first compound 0.2 µM, partner dose 1.66667 µM)", "cleaved PARP positive nuclei fraction": 146}, {"molecule": "Cc1cn(-c2cc(NC(=O)c3ccc(C)c(Nc4nccc(-c5cccnc5)n4)c3)cc(C(F)(F)F)c2)cn1", "note": "[nilotinib] + O=S(=O)(c1ccccc1)N(CC(F)(F)F)c1ccc(C(O)(C(F)(F)F)C(F)(F)F)cc1 [T0901317] (first compound 0.2 µM, partner dose 1.4 µM)", "cleaved PARP positive nuclei fraction": 91.4}, {"molecule": "COc1cc([C@@H]2c3cc4c(cc3[C@@H](O[C@@H]3O[C@@H]5CO[C@@H](C)O[C@H]5[C@H](O)[C@H]3O)[C@H]3COC(=O)[C@H]23)OCO4)cc(OC)c1O", "note": "[etoposide] + Cc1cc([N+](=O)[O-])ccc1NS(=O)(=O)c1cc(Cl)ccc1Cl [FH535] (first compound 0.02 µM, partner dose 1 µM)", "cleaved PARP positive nuclei fraction": 154}, {"molecule": "N#CC[C@H](C1CCCC1)n1cc(-c2ncnc3[nH]ccc23)cn1", "note": "[ruxolitinib] + N#Cc1c(O)c2c(-c3ccc(-c4ccccc4O)cc3)csc2[nH]c1=O [A769662] (first compound 1 µM, partner dose 2 µM)", "cleaved PARP positive nuclei fraction": 119}, {"molecule": "COc1cc([C@@H]2c3cc4c(cc3[C@@H](O[C@@H]3O[C@@H]5CO[C@@H](C)O[C@H]5[C@H](O)[C@H]3O)[C@H]3COC(=O)[C@H]23)OCO4)cc(OC)c1O", "note": "[etoposide] + O=C1NC(=O)/C(=C/c2ccc(-c3ccc(F)cc3O)o2)S1 [AS252424] (first compound 0.02 µM, partner dose 1 µM)", "cleaved PARP positive nuclei fraction": 77.1}, {"molecule": "COc1cc([C@@H]2c3cc4c(cc3[C@@H](O[C@@H]3O[C@@H]5CO[C@@H](C)O[C@H]5[C@H](O)[C@H]3O)[C@H]3COC(=O)[C@H]23)OCO4)cc(OC)c1O", "note": "[etoposide] + CC(C)CCN1c2nc(Nc3cc(F)c(O)c(F)c3)ncc2N(C)C(=O)C1C [BID1870] (first compound 0.02 µM, partner dose 0.2 µM)", "cleaved PARP positive nuclei fraction": 103}, {"molecule": "Cc1ccc(Nc2nccc(N(C)c3ccc4c(C)n(C)nc4c3)n2)cc1S(N)(=O)=O", "note": "[Pazopanib] + CCN(CC)CCCCNc1ncc2cc(-c3cc(OC)cc(OC)c3)c(NC(=O)NC(C)(C)C)nc2n1 [PD173074] (first compound 0.4 µM, partner dose 0.1 µM)", "cleaved PARP positive nuclei fraction": 119}, {"molecule": "Cc1cn(-c2cc(NC(=O)c3ccc(C)c(Nc4nccc(-c5cccnc5)n4)c3)cc(C(F)(F)F)c2)cn1", "note": "[nilotinib] + COc1ccc2c(c1)CCC1C2CCC2(C)C(NCCCCCCN3C(=O)C=CC3=O)CCC12 [U73122] (first compound 0.2 µM, partner dose 0.4 µM)", "cleaved PARP positive nuclei fraction": 80.2}, {"molecule": "N#CC[C@H](C1CCCC1)n1cc(-c2ncnc3[nH]ccc23)cn1", "note": "[ruxolitinib] + COc1ccc2c(c1)CCC1C2CCC2(C)C(NCCCCCCN3C(=O)C=CC3=O)CCC12 [U73122] (first compound 1 µM, partner dose 0.4 µM)", "cleaved PARP positive nuclei fraction": 84.6}, {"molecule": "CCCCCCCCCCCCCCCCCCOP(=O)([O-])OC1CC[N+](C)(C)CC1", "note": "[Perifosine] + O=C(O)C(=O)Nc1sc2c(c1C(=O)O)CCNC2 [TCS401] (first compound 0.4 µM, partner dose 1.66667 µM)", "cleaved PARP positive nuclei fraction": 88.8}, {"molecule": "Cc1cn(-c2cc(NC(=O)c3ccc(C)c(Nc4nccc(-c5cccnc5)n4)c3)cc(C(F)(F)F)c2)cn1", "note": "[nilotinib] + COc1cc(N2CCC(N3CCN(C)CC3)CC2)ccc1Nc1ncc(Cl)c(Nc2ccccc2S(=O)(=O)C(C)C)n1 [NVP-TAE684] (first compound 0.2 µM, partner dose 0.08 µM)", "cleaved PARP positive nuclei fraction": 97.2}, {"molecule": "Cc1ccc(Nc2nccc(N(C)c3ccc4c(C)n(C)nc4c3)n2)cc1S(N)(=O)=O", "note": "[Pazopanib] + O=C(Nc1ccccc1)c1cc([N+](=O)[O-])ccc1Cl [GW9662] (first compound 0.4 µM, partner dose 2 µM)", "cleaved PARP positive nuclei fraction": 93.4}, {"molecule": "O=C(Nc1cc(C(F)(F)F)cc(C(F)(F)F)c1)c1cc(Cl)ccc1O", "note": "+ O=C(O)C(=O)Nc1sc2c(c1C(=O)O)CCNC2 [TCS401] (first compound 0.016 µM, partner dose 1.66667 µM)", "cleaved PARP positive nuclei fraction": 78}]}]}
